This test deals with SARS-CoV-2 FSE (−1 PRF). The test can be described thus: cells. Type of test: cell-based. The following applies: Severe acute respiratory syndrome coronavirus 2, HEK-293T, 24 h.

Consider `Cc1cc(/C=C/c2ccc3cc(N(C)C)ccc3[n+]2C)c(C)n1-c1ccccc1` [PYRVINIUM PAMOATE], for which the inhibition at 10 µM (read-out: PERCENT EFFECT 2 (Decreased GFP/Red ratio)) came to 112%. Also, the activation at 10 µM (read-out: PERCENT EFFECT (Increased GFP/Red Ratio)) was -58.2%.

Source of the values: patent US20230364074A1, “Compounds and Compositions for Disrupting Programmed Ribosomal Frameshifting” (YALE UNIVERSITY, priority 2020, published 2023).
